In patent US20090123925A1, “CANCER THERAPY PROGNOSIS AND TARGET” (priority 2005, published 2009):
At least one structure is not confirmed: it was looked up by name or label, or the drawing left a doubt.

System: A549 wt cells
Format: cell-based, human
Conditions: 100 μM CTSB inhibitor
Method: The human NSCLC cell line A549 [from ATCC; CCL-185] was maintained in F12-K and RPMI 1640 (supplemented with 10% foetal bovine serum (FBS), 100 U/ml penicillin, and 100 μg/ml streptomycin at 37° C., 5% CO2) in an incubator.
Cytotoxicity of each platinum drug in each cell line was determined by MTT (3-(4,5-dimethylthiazole-2-yl)-2,5-diphenyl tetrazolium bromide, Sigma) assay. Cells were seeded onto 96-well plates at a density of 2-3×10^3 cells per well and cultured for 24 hours. Then cells were incubated with relevant concentrations of carboplatin, cisplatin or oxaliplatin for 72 hours. After treatment, 30 μl of MTT (5 mg/ml) in PBS was incubated with cells in a 96-well plate for 4 h at 37° C. Subsequently, the medium containing MTT was removed, and 200 μl of DMSO was added to each well and shaken for 15 minutes. Spectrophotometric absorbance of each well was measured at 560 nm and 630 nm on a microplate reader (Bio-Rad, model 3550). GraphPad Prism 2.01 was used to calculate the IC50 of each platinum drug in different cell lines.
CA-074 Methyl ester (Sigma) was used to inhibit cathepsin B and caspase inhibitor I: (Z-VAD (OMe)-FMK, Calbiochem, UK) to inhibit caspases. Cathepsin L and K selective inhibitors (Cathepsin L inhibitor IV: Z-FF-FMK and Cathepsin K inhibitor I: 1,3-Bis (N-carbobenzoyloxy-L-leucyl) amino acetone, respectively (Calbiochem, UK)) and non-selective broad range cathepsin inhibitor (E-64d; (2S, 3S)-trans-epoxysuccinyl-L-leucylamido-3-methylbutane ethyl ester (Sigma, UK) were used to inhibit cysteine proteases.

Question: With CCCNC(=O)[C@H]1O[C@@H]1C(=O)N[C@H](C(=O)N1CCC[C@H]1C(=O)OC)[C@@H](C)CC [CA074 methyl ester, CA-074 Methyl ester] as the molecule, how does the “Effect of cathepsin B inhibition on effects of carboplatin (IC50, MTT)” value read?
Answer: not changed

Question: And the “Effect of cathepsin B inhibition on effects of cisplatin (IC50, MTT)” value?
Answer: not changed

Question: What about the “Effect of cathepsin B inhibition on sensitivity to oxaliplatin (IC50, MTT)” value (p<0.01) of the same molecule?
Answer: significantly increased
